## Results of single-concentration screens

Amino acid sequences for entries named in this document (tags omitted). Residues count along the entry.
UniProt I6X8D2, whole entry: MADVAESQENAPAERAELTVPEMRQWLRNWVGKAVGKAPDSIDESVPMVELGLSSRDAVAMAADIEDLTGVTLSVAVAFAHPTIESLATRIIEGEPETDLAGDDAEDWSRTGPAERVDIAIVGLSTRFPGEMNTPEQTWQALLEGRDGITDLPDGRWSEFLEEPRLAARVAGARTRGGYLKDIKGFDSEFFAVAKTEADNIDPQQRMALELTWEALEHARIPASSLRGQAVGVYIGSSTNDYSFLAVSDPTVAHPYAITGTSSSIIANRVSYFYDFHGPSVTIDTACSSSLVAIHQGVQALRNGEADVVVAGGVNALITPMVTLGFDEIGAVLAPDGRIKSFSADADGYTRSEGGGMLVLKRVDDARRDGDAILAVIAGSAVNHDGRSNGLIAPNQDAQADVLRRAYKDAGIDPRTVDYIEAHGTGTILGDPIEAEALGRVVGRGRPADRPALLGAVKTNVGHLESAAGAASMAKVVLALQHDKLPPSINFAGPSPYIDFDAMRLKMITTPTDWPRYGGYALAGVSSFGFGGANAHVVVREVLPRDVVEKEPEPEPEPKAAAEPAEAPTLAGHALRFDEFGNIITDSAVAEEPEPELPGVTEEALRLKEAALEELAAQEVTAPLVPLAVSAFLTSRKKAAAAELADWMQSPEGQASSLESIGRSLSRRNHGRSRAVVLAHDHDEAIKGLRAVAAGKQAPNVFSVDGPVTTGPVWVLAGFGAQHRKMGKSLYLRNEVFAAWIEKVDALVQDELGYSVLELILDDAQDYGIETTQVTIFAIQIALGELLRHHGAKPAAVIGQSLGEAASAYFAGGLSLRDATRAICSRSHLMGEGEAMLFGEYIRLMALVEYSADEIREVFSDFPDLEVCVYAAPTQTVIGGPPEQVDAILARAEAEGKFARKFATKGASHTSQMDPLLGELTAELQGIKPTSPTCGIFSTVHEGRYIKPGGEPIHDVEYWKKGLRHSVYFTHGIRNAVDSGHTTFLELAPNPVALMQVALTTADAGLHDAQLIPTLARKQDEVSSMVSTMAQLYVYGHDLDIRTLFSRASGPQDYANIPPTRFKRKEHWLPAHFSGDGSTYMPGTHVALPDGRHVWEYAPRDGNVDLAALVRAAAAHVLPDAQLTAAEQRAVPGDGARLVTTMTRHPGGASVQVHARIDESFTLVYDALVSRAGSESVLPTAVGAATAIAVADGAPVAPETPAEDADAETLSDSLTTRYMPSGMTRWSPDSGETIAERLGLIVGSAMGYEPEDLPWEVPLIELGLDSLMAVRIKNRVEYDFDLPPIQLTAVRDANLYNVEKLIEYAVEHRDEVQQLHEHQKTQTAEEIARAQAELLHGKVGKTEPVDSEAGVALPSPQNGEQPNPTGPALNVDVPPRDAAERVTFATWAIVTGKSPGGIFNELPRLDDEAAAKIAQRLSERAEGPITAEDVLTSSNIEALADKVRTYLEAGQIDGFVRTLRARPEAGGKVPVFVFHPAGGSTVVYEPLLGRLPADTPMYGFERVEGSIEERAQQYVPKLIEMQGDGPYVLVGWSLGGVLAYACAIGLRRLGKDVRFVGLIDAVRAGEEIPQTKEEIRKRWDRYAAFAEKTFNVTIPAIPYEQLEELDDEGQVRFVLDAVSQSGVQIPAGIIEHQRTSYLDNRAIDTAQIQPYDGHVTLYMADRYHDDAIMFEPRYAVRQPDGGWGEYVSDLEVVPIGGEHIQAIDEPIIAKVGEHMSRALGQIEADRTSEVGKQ
UniProt P9WNZ1, whole entry: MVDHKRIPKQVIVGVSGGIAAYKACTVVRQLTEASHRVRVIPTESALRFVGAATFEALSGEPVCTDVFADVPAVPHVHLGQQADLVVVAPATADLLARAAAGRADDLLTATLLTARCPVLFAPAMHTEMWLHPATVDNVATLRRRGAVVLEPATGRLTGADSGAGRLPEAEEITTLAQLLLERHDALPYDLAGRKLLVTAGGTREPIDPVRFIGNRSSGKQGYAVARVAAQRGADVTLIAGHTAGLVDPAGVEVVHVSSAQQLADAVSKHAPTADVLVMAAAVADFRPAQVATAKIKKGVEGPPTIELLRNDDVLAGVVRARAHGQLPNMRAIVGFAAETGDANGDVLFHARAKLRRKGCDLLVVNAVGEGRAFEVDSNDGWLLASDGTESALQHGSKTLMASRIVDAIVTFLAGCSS
UniProt P9WFT3, whole entry: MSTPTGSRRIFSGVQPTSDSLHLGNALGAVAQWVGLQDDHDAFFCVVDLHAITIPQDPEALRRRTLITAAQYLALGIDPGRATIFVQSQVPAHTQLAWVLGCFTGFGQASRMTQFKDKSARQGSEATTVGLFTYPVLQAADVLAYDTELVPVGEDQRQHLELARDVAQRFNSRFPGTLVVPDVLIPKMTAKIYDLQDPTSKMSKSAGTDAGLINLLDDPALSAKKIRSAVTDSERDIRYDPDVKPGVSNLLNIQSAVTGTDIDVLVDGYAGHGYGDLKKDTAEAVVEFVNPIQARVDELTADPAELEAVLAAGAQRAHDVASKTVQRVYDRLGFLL
UniProt A4I591, 1-473: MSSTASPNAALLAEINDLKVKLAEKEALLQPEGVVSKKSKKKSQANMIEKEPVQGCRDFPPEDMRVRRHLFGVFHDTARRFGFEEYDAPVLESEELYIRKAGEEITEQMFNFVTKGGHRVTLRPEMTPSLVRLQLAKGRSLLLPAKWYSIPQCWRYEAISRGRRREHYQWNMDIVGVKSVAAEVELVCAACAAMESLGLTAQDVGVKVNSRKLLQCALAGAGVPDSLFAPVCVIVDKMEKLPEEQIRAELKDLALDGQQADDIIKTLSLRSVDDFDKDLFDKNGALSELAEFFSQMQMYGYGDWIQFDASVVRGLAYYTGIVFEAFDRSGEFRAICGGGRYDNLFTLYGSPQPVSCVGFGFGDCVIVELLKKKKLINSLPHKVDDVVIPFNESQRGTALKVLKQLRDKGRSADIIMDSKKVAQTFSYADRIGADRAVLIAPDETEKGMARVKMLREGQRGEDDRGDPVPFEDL
UniProt Q4DA54, 1-478: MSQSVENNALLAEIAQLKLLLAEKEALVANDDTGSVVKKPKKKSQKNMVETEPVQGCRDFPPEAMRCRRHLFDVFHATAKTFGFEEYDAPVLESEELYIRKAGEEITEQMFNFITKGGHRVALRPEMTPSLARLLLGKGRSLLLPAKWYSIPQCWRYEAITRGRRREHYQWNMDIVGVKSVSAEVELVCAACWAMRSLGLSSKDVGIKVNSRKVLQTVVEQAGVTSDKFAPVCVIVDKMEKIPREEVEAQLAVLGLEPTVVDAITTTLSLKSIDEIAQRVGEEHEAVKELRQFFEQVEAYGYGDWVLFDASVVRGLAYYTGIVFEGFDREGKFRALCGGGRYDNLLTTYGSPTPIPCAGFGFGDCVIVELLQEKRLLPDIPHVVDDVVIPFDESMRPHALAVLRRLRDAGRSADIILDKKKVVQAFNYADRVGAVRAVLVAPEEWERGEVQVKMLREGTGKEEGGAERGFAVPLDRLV

Source: ChEMBL document CHEMBL3988442, “University of Dundee, Small-Polar-MMV Screening Library” (2021).

Pks13 thioesterase: 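Polyketide synthase Pks13, Mycobacterium tuberculosis (UniProt I6X8D2). Enzyme assay of the thioesterase domain of polyketide synthase 13; the read-out is not stated. Concentration: 30 µM. The record gives no direction; the compounds picked for IC50 retests had high values, so higher reads as stronger inhibition. Size under these conditions: about 67,000 compounds, about 300 of them at 50% or above in at least one test.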
Toxoplasma: 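Assay of Toxoplasma gondii numbers, read through their beta-galactosidase reporter with a colour substrate. Concentration: 10 µM. Higher reads as fewer parasites (inferred from which compounds were picked for retests). About 67,000 compounds were tested under these conditions; 0.38% (about 260) showed 50% or more at least once.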
CoaBC: 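Coenzyme A biosynthesis protein CoaBC, Mycobacterium tuberculosis (UniProt P9WNZ1). Enzyme assay of CoaBC with a phosphate dye (Biomol Green) read at 650 nm. Concentration: 30 µM. Direction is inferred from only a few compounds that gave an IC50; most scored high, so higher reads as stronger inhibition. Most strong results did not repeat in a second test. About 67,000 compounds were tested under these conditions; 0.06% (about 40) showed 50% or more at least once.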
MtTrpRS: 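Enzyme assay of tryptophanyl-tRNA synthetase; the read-out is not stated. Target: Tryptophan-tRNA ligase, Mycobacterium tuberculosis (UniProt P9WFT3). Concentration: 10 µM. Higher most likely means stronger inhibition; the record gives no direction and few retests gave an IC50. Size under these conditions: about 65,000 compounds, about 64 of them at 50% or above in at least one test.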
LiHisRS: 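Histidine-tRNA ligase, Leishmania infantum (UniProt A4I591). Enzyme assay of histidyl-tRNA synthetase; the read-out is not stated. Tested at 30 µM. The record gives no direction; compounds that gave an IC50 in retests scored well above the rest, so higher reads as stronger inhibition. The assay is labelled LdHisRS but filed under L. infantum. Of about 69,000 compounds tested this way, about 410 (0.6%) reached 50% or more in at least one test.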
TcHisRS: 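Enzyme assay of histidyl-tRNA synthetase; the read-out is not stated. Target: Histidine-tRNA ligase, Trypanosoma cruzi CL Brener (UniProt Q4DA54). Compounds at 30 µM. Direction is inferred from retests: higher values go with stronger inhibition. About 69,000 compounds were tested under these conditions; 0.045% (about 31) showed 50% or more at least once.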

Results are given as percent effect. How 0% and 100% were set is not recorded. Most values in the screen are low, and negative values occur. This is an unselected part of the compounds tested. Two or more numbers in one place are separate tests of the same structure; such repeats can differ widely. A dash means the value is not listed here; it may have been measured.

structure | Pks13 thioesterase | Toxoplasma | CoaBC | MtTrpRS | LiHisRS | TcHisRS
CCN(CC)c1nc(C)cc(C(=O)Nc2cccc(C(N)=O)c2)n1 | -6.023% | -15.06% | 1.205% | 1.748% | 9.89% | 9.901%
CC(C)Cc1noc(CN2CCN(CCOc3ccc(Cl)cc3)CC2)n1 | 11.01% | -4.658% | 1.862% | -1.101% | 31.2% | 1.901%
[H][C@@]12CN(C(=O)c3cnccn3)C[C@]1([H])OCC(=O)N2CC1CCCCC1 | - | 5.419% | - | - | - | -
O=C(O)C(F)(F)F.[H][C@]12CCN(C(=O)CCC)CC[C@@]1([H])S(=O)(=O)CCN2Cc1cccc(C)n1 | - | 4.283% | - | - | - | -
[H][C@]12CCN(C(=O)c3ccno3)[C@@]1([H])CC(=O)N2CC1CC1 | - | 14.21% | - | - | - | -
CCc1nc(C2CCCN(C(=O)C3=NN(C(C)C)C(=O)CC3)C2)no1 (stereo unspecified) | -11.29% | 5.475% | 2.805% | -1.06% | 4.396% | 3.012%
CC(C)(C)n1nnnc1CN(CCc1ccccc1)Cc1ccccc1 | 34.89% | 9.819% | 4.895% | -4.606% | 14.18% | 20.68%
Cc1c(C(=O)N(C)CC(C)O)sc2nc(C(F)(F)F)ccc12 (stereo unspecified) | -25.96% | -2.163% | 10.98% | -1.528% | 13.33% | -1.299%
CC(C)c1cc(=O)[nH]c(C(C)(C)N)n1 | 0.3066% | - | 2.386% | -2.437% | 6.25% | 7.447%
Cc1nc(C)n(CC2CCCN(CCC(=O)Nc3cc(C)on3)C2)n1 (stereo unspecified) | -8.029% | -17.76% | -1.863% | -1.467% | 1.754% | 1.433%
[H][C@]12CC[C@]([H])(CN(C(=O)c3cc(F)cc(Cl)c3)C1)N(Cc1ccccc1)C2 | - | -9.909% | - | - | - | -
CCOCC(=O)N1C[C@@H](NC(C)=O)[C@H](c2ccc(OC)cc2)C1 | -7.615% | -6.057% | 2.232% | 4.973% | 18.45% | 1.245%
COc1ccc(OCC(=O)n2nc(C)c(C)c2C)cc1 | -10.8% | -13.97% | -4.391% | 0.07886% | 13.56% | 10.24%
COCC[C@]1(O)CCN(CC(=O)NCc2ccccn2)C[C@H]1C | -12.44% | 26.28% | -0.3774% | -1.905% | 0% | 5.357%
NC(=O)C1CCN(C(=O)c2ccn(-c3ccc(F)cc3)n2)C1 (stereo unspecified) | -6.128% | 5.708% | -3.71% | 1.069% | 9.231% | 6.513%
CCN(C)c1ncnc2c1CCN(C(=O)c1cnccn1)CC2 | -32.6% | - | 3.1% | 4.739% | 26.03% | 5.941%
COCc1ncc(CN2CCC(Oc3ccc(OC)cc3)CC2)cn1 | -38.56% | -9.067% | 0% | -0.1236% | 18.18% | -3.636%
COc1cc(N2C[C@H]3CN(Cc4ccccn4)C[C@H]3C2)ncn1 | 2.203% | - | 2.228% | - | 6.306% | 4.42%
[H][C@@]12CN(Cc3cccnc3)C[C@]1([H])C(=O)NC21CCN(C(C)=O)CC1 | - | -20.75% | - | - | - | -
CC(C)(C)n1ncc2c1NC(=O)CSC2c1ccc2c(c1)OCO2 (stereo unspecified) | 1.727% | -0.4369% | 4.177% | -4.068% | 20% | 2.484%
CC(C)Nc1nc(N2CCCC2)nc2c1CCN(S(C)(=O)=O)CC2.O=C(O)C(F)(F)F.O=C(O)C(F)(F)F | - | 2.099% | - | - | - | -
COCCc1noc(CN2C(=O)OC[C@@H]2C(C)C)n1 | -3.606% | -0.4622% | -4.703% | -0.06915% | 20% | 15.66%
Cn1cc(CN2CC[C@H]3OCC[C@@H](C(=O)N4CCCCO4)[C@@H]3C2)cn1 | -26.01% | - | -1.75% | 4.824% | 11.65% | -4.918%
[H][C@]12CCN(C(=O)c3cnccn3)[C@@]1([H])CC[C@@H](COCC)O2 | - | 7.947% | - | - | - | -
Cc1cc(NC(=O)NCCO)nn1-c1ccc(Cl)cc1Cl | - | 9.028% | 6.561% | -3.843% | 9.333% | 2.646%
Cc1cccc(C)c1Oc1ncccc1CNC(=O)C1COC(=O)N1 (stereo unspecified) | -3.469% | -10.42% | 10.41% | 3.673% | 18.07% | 7.463%
CCC(O)CN1CCN(C(=O)c2sccc2OC)CC1 (stereo unspecified) | -8.961% | -4.227% | 2.635% | 3.595% | 12.5% | 2.662%
CC(C)C(NC(=O)c1cnc(N2CCOCC2)nc1)c1cccs1 (stereo unspecified) | - | 10.35% | 7.732% & 20.74% | -4.486% | 9.929% | 3.876%
CCc1nc(C2CCCN2C(=O)Cc2cccs2)no1 (stereo unspecified) | -1.201% | -3.738% | 2.427% | -7.85% | 0.8929% | 1.156%
CCN1CC2(CCC1=O)CCN(C(=O)C(O)c1cccc(Cl)c1)CC2 (stereo unspecified) | -15.82% | -5.11% | 0.2404% | 4.68% | 18.75% | 3.797%
O=C(Cc1noc(C(=O)NCC2CC2)n1)Nc1cccc(C(F)(F)F)c1 | 19.48% | 20.28% | -4.688% | -0.5663% | 5.618% | -0.5181%
O=C(O)C(F)(F)F.O=C(O)C(F)(F)F.O=C(O)C(F)(F)F.[H][C@@]12C[C@@H](Oc3cccc(F)c3)CN1CCN(Cc1ccncc1)C2 | - | -6.327% | - | - | - | -

The last 3 entries again:

structure,Pks13 thioesterase,Toxoplasma,CoaBC,MtTrpRS,LiHisRS,TcHisRS
CCN1CC2(CCC1=O)CCN(C(=O)C(O)c1cccc(Cl)c1)CC2 (stereo unspecified),-15.82%,-5.11%,0.2404%,4.68%,18.75%,3.797%
O=C(Cc1noc(C(=O)NCC2CC2)n1)Nc1cccc(C(F)(F)F)c1,19.48%,20.28%,-4.688%,-0.5663%,5.618%,-0.5181%
O=C(O)C(F)(F)F.O=C(O)C(F)(F)F.O=C(O)C(F)(F)F.[H][C@@]12C[C@@H](Oc3cccc(F)c3)CN1CCN(Cc1ccncc1)C2,-,-6.327%,-,-,-,-